The list is a part of this screen's results and no random one: it gathers tests that were run many times, whatever their T/C, doses with no T/C, and many T/C values between a quarter and a half above the control. Further doses and runs are listed elsewhere. T/C is the treated group as % of the vehicle group. Some doses have a count of surviving animals in place of a T/C: the source files T/C as zero there, which appears to mark a toxic dose or a test without result, not a measured value. Some survivor counts are full or nearly so, which does not show that the dose was tolerated: survival well below the control is almost never listed, so the zero probably covers shortened survival too. Survivors were counted at the toxicity check, usually on the fifth day, unless a day is given; later deaths do not show. Schedule codes are those of the source, read here as Q, the interval in days (D) or hours (H), X, the number of doses. Some entries hold several experiments; their values stand side by side, smallest first. Some schedules carry Z or #; the key to these is not given. Where survival is the endpoint, the PubChem record calls one and a half times the control and up active, and a quarter to a half above the control has no call in these data; cut-offs in other NCI protocols can differ. Some T/C values are followed by the survivors on the day toxicity was checked, most often the fifth; where none is given, no animal had died by that day.

The experiment deals with L1210 leukemia ip in BDF1 mice, survival T/C. The experiment can be described thus: NCI In Vivo Anticancer Drug Screen. Data for tumor model L1210 Leukemia (intraperitoneal) in B6D2F1 (BDF1) mice. The note with it: higher T/C = longer survival.
Where [1] appears, read: T/C endpoint: mean survival time, dose: 400.0 mg/kg/injection, schedule: Q01DX001 (ip), vehicle: carboxymethylcellulose (CMC).
Where [2] appears, read: T/C endpoint: mean survival time, dose: 100.0 mg/kg/injection, schedule: Q01DX001 (ip), vehicle: carboxymethylcellulose (CMC).
[3] abbreviates: T/C endpoint: mean survival time, dose: 200.0 mg/kg/injection, schedule: Q01DX001 (ip), vehicle: carboxymethylcellulose (CMC).
The mark [4] stands for this setting: T/C endpoint: mean survival time, dose: 100.0 mg/kg/injection, schedule: Q04DX002 (ip), vehicle: saline with Tween-80.
Setting [5] is: T/C endpoint: mean survival time, dose: 200.0 mg/kg/injection, schedule: Q04DX003 (ip), vehicle: saline with Tween-80.
Setting [6] is: T/C endpoint: mean survival time, dose: 100.0 mg/kg/injection, schedule: Q04DX003 (ip), vehicle: saline with Tween-80.
Setting [7] is: T/C endpoint: mean survival time, dose: 200.0 mg/kg/injection, schedule: Q04DX003 (ip), vehicle: other.
[8] abbreviates: T/C endpoint: mean survival time, dose: 400.0 mg/kg/injection, schedule: Q04DX002 (ip), vehicle: saline with Tween-80.
[9] abbreviates: T/C endpoint: mean survival time, dose: 100.0 mg/kg/injection, schedule: Q01DX001 (ip), vehicle: saline.
Where [10] appears, read: T/C endpoint: mean survival time, dose: 400.0 mg/kg/injection, schedule: Q01DX001 (ip), vehicle: saline.
[11] abbreviates: T/C endpoint: mean survival time, dose: 200.0 mg/kg/injection, schedule: Q04DX002 (ip), vehicle: saline with Tween-80.

Turning to `C[C@]12CC[C@H]3[C@@H](CC[C@]4(O)C[C@@H](O)CC[C@]34C=O)[C@@]1(O)CC[C@@H]2C1=CC(=O)OC1`, the survivor count by setting is: (T/C endpoint: mean survival time, dose: 200.0 mg/kg/injection, schedule: Q01DX009 (ip), vehicle: carboxymethylcellulose (CMC)) 3 of 6; under setting [1], 2 of 6; (T/C endpoint: mean survival time, dose: 400.0 mg/kg/injection, schedule: Q01DX009 (ip), vehicle: carboxymethylcellulose (CMC)) 3 of 6; (T/C endpoint: mean survival time, dose: 600.0 mg/kg/injection, schedule: Q04DX003 (ip), vehicle: Klucel (hydroxypropylcellulose) (HPC)) 6 of 6.

Take `O=C(CN1CC1)NCCCCCCCCNC(=O)CN1CC1`: the T/C (T/C endpoint: mean survival time, dose: 16.0 mg/kg/injection, schedule: Q01DX009 (ip), vehicle: carboxymethylcellulose (CMC)) was 149 % of control [5 of 6 alive]; the T/C (T/C endpoint: mean survival time, dose: 22.0 mg/kg/injection, schedule: Q01DX001 (ip), vehicle: carboxymethylcellulose (CMC)) was 138 % of control; the T/C (T/C endpoint: mean survival time, dose: 22.0 mg/kg/injection, schedule: Q01DX009 (ip), vehicle: carboxymethylcellulose (CMC)) was 135 % of control; the T/C (T/C endpoint: mean survival time, dose: 25.0 mg/kg/injection, schedule: Q04DX003 (ip), vehicle: Klucel (hydroxypropylcellulose) (HPC)) is 144 % of control; the T/C (T/C endpoint: mean survival time, dose: 33.0 mg/kg/injection, schedule: Q01DX001 (ip), vehicle: carboxymethylcellulose (CMC)) is 146 % of control; the T/C (T/C endpoint: mean survival time, dose: 75.0 mg/kg/injection, schedule: Q01DX001 (ip), vehicle: carboxymethylcellulose (CMC)) is 135 % of control. The survivor count reads like this: (T/C endpoint: mean survival time, dose: 75.0 mg/kg/injection, schedule: Q01DX009 (ip), vehicle: carboxymethylcellulose (CMC)) 6 of 6; under setting [2], 2 of 4; under setting [3], 0 of 4; under setting [1], 0 of 4.

As to `CCOC(CN1CCOCC1)c1ccccc1` (stereo not drawn), the survivor count (T/C endpoint: mean survival time, dose: 400.0 mg/kg/injection, schedule: Q04DX002 (ip), vehicle: carboxymethylcellulose (CMC)) is 2 of 3 and 4 of 6.

As for `CCOC(=O)c1ccc(N(CC(O)CN=[N+]=[N-])S(=O)(=O)c2ccc(C)cc2)cc1` (stereo not drawn), the survivor count by setting is: under setting [4], 3 of 3; under setting [5], 6 of 6.

`COc1ccc2c(c1)CC(=CO)CC2=O.COc1ccc2c(c1)CC/C(=C/O)C2=O.[Cu]`: the survivor count (T/C endpoint: mean survival time, dose: 400.0 mg/kg/injection, schedule: Q01DX009 (ip), vehicle: saline with Tween-80) is listed as 1 of 6.

With `NC1=CCNC(=O)N1c1ccccc1`, the survivor count (T/C endpoint: mean survival time, dose: 200.0 mg/kg/injection, schedule: Q01DX Z (ip), vehicle: methylcellulose (MC)) is 4 of 6.

For `CCCCCCCCCCCCCCCCCCCCCCCC(=O)OCC`, the survivor count is given as 6 of 6 under setting [6] and 6 of 6 under setting [5].

Turning to `CN(C)C(=O)NCc1ccco1`, the survivor count runs as follows: (T/C endpoint: mean survival time, dose: 100.0 mg/kg/injection, schedule: Q04DX003 (ip), vehicle: other) 0 of 6; under setting [7], 6 of 6; (T/C endpoint: mean survival time, dose: 400.0 mg/kg/injection, schedule: Q04DX003 (ip), vehicle: other) 2 of 6.

For the molecule `CN=C(NC)c1ccc(NC(=O)c2cc(OC)cc(C(=O)Nc3ccc(C(=NC)NC)cc3)c2)cc1`, the survivor count by setting is: (T/C endpoint: mean survival time, dose: 15.0 mg/kg/injection, schedule: Q01DX Z (ip), vehicle: saline) 2 of 6; (T/C endpoint: mean survival time, dose: 30.0 mg/kg/injection, schedule: Q01DX Z (ip), vehicle: saline) 0 of 6; (T/C endpoint: mean survival time, dose: 60.0 mg/kg/injection, schedule: Q01DX Z (ip), vehicle: saline) 0 of 6; (T/C endpoint: mean survival time, dose: 120.0 mg/kg/injection, schedule: Q01DX Z (ip), vehicle: saline) 0 of 6.

Turning to `OCC1OC(c2ccccc2)OC(CO)C(O)C1O` (stereo not drawn), the survivor count (T/C endpoint: mean survival time, dose: 400.0 mg/kg/injection, schedule: Q04DX003 (ip), vehicle: saline with Tween-80) is 6 of 6.

Regarding `N#CC1(C#N)OC(C#N)(C#N)C2C1C=CC1C2C1(C#N)C#N` (stereo not drawn), the survivor count (T/C endpoint: mean survival time, dose: 100.0 mg/kg/injection, schedule: Q01DX001 (ip), vehicle: saline with Tween-80) is on record as 0 of 3; the survivor count (T/C endpoint: mean survival time, dose: 200.0 mg/kg/injection, schedule: Q01DX001 (ip), vehicle: saline with Tween-80) is on record as 0 of 3; the survivor count (T/C endpoint: mean survival time, dose: 400.0 mg/kg/injection, schedule: Q01DX001 (ip), vehicle: saline with Tween-80) was 0 of 3.

In the case of `CCN(CC)CCCNc1cc(OC)cc2cccnc12`, the survivor count is, setting by setting: (T/C endpoint: mean survival time, dose: 40.0 mg/kg/injection, schedule: Q01DX001 (ip), vehicle: carboxymethylcellulose (CMC)) 2 of 4; (T/C endpoint: mean survival time, dose: 80.0 mg/kg/injection, schedule: Q01DX001 (ip), vehicle: carboxymethylcellulose (CMC)) 0 of 4; under setting [2], 0 of 4; under setting [3], 0 of 4; under setting [1], 0 of 4.

In the case of `O=C(Nc1ccc(O)cc1)Sc1ccccc1`, the survivor count runs as follows: (T/C endpoint: mean survival time, dose: 150.0 mg/kg/injection, schedule: Q01DX001 (ip), vehicle: gum acacia) 2 of 6; (T/C endpoint: mean survival time, dose: 300.0 mg/kg/injection, schedule: Q01DX001 (ip), vehicle: gum acacia) 0 of 6.

`CCCCNC(=O)c1ccccc1N`: under setting [7], the survivor count is on record as 3 of 3.

On to `CCOC(=O)c1c[nH]c2cc([N+](=O)[O-])ccc2c1=O`, for which the survivor count under setting [6] was 6 of 6.

As for `COc1ccc(C[C@H](N)C(=O)NC2C(CO)OC(n3cnc4c(N(C)C)ncnc43)C2O)cc1` (stereo partly drawn), the survivor count (T/C endpoint: median survival time, dose: 400.0 mg/kg/injection, schedule: Q04DX003 (ip), vehicle: saline) was 5 of 8.

Take `CCCC(O)c1ccc(OC)c(OC)c1` (stereo not drawn): the survivor count (T/C endpoint: mean survival time, dose: 400.0 mg/kg/injection, schedule: Q04DX002 (ip), vehicle: Klucel (hydroxypropylcellulose) (HPC)) is listed as 1 of 3.

Regarding `CNC(C)=O`, the survivor count (T/C endpoint: mean survival time, dose: 250.0 mg/kg/injection, schedule: Q01DX Z (ip), vehicle: carboxymethylcellulose (CMC)) was 10 of 10.

With `CC1CN1C(=O)Nc1ccc(Cl)cc1` (stereo not drawn), the survivor count runs as follows: (T/C endpoint: mean survival time, dose: 200.0 mg/kg/injection, schedule: Q04DX002 (ip), vehicle: other) 1 of 3; (T/C endpoint: mean survival time, dose: 400.0 mg/kg/injection, schedule: Q04DX002 (ip), vehicle: other) 0 of 3.

With `CC(N)C12CC3CC(CC(C3)C1)C2` (stereo not drawn), the survivor count (T/C endpoint: mean survival time, dose: 150.0 mg/kg/injection, schedule: Q01DX009 (ip), vehicle: saline) is listed as 0 of 6 and the survivor count (T/C endpoint: mean survival time, dose: 300.0 mg/kg/injection, schedule: Q01DX009 (ip), vehicle: saline) is recorded as 0 of 6.

Consider `O=C1CCc2ccsc21`, for which, under setting [8], the survivor count was 3 of 3.

As to `CCCC/C(COC)=N\N=C(\CCOC)COC`, the survivor count under setting [2] was 3 of 3.

Consider `CC(C)C1(NC(=O)C2C=C3c4cccc5[nH]cc(c45)CC3N(C)C2)OC2(O)C3CCCN3C(=O)C(Cc3ccccc3)N2C1=O` (stereo not drawn), for which the survivor count by setting is: under setting [9], 6 of 6; under setting [3], 2 of 4; under setting [1], 0 of 4; under setting [10], 1 of 6 and 1 of 4.

As for `N#CC(C#N)=Cc1ccco1`, the survivor count is reported as 1 of 4 (T/C endpoint: mean survival time, dose: 80.0 mg/kg/injection, schedule: Q01DX001 (ip), vehicle: saline); 0 of 4 under setting [9]; 0 of 4 (T/C endpoint: mean survival time, dose: 200.0 mg/kg/injection, schedule: Q01DX001 (ip), vehicle: saline); 0 of 4 under setting [10].

Take `CC(=O)Nc1ccc(NC(=S)NC(=O)COc2ccccc2)cc1`: the T/C under setting [4] is given as 94, 98, 100 % of control; the T/C under setting [11] is 86, 106, 107 % of control; the T/C under setting [8] was 91, 93, 94, 116 % of control. In addition, the survivor count is 6 of 6 under setting [4] and 3 of 3 under setting [11].
